PubChem BioAssay AID504764 | Drosophila RNAi Screening Center | 2011
In all, the deposit lists about 22,000 reagents; shown is a random part of those with a known target gene and a result. Over the whole deposit, 403 (1.9%) got an active call. 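Unnormalised raw counts per well; ratio z-scores behind the hit calls and whether each hit raises or lowers signal are not deposited.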 A plus sign joins genes that one reagent is predicted to hit. Not stated in the record: the amount of reagent.

Test: 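Genes whose knock-down alters Notch-dependent transcription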 (primary screen)
Cell system: Drosophila Kc167 cells
Reagent: long dsRNA against Drosophila genes
Time to read-out: about 5 days (4 days dsRNA, then 24 h after transfection)
Conditions: transfection of constitutively active membrane-tethered Notch lacking the extracellular domain, read 24 h later
Detection: 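Light from a Notch-responsive E(spl)m3 luciferase reporter under active Notch, with control-promoter and no-Notch reporter wells to normalise; raw counts from paired wells a and b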
Direction: induced reporter light, run 1, well a and induced reporter light, run 1, well b: higher = more light from the Notch target reporter with active Notch; control promoter light, run 1, well a and control promoter light, run 1, well b: higher = more light from the viral control promoter (cell number, transfection, viability); uninduced reporter light, run 1, well a: higher = more light from the Notch target reporter without active Notch
Hit rule: 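Wells with low control signal or poorly matching duplicates excluded; duplicates averaged; per source plate, z beyond ±2 for induced/control log2 ratio or beyond ±1.8 for induced/uninduced marks a hit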
Calls: active = modifier hit (raised or lowered Notch signal); inactive = not a hit

For Cip4 [DRSC08091], how do the results read?
induced reporter light, run 1, well a: 2.64e5; induced reporter light, run 1, well b: 2.44e5; control promoter light, run 1, well a: 1.88e5; control promoter light, run 1, well b: 2.15e5; uninduced reporter light, run 1, well a: 13025; outcome: inactive

For Cip4 [DRSC08469], how do the results read?
induced reporter light, run 1, well a: 1.14e5; induced reporter light, run 1, well b: 1.43e5; control promoter light, run 1, well a: 84390; control promoter light, run 1, well b: 26165; uninduced reporter light, run 1, well a: 7510; outcome: inactive

Which result is listed for Cip4 [DRSC21740]?
outcome: inactive

Which result is listed for dpr8 [DRSC19406]?
induced reporter light, run 1, well a: 81015; induced reporter light, run 1, well b: 65510; control promoter light, run 1, well a: 85700; control promoter light, run 1, well b: 74915; uninduced reporter light, run 1, well a: 12220; outcome: inactive

With dpr8 [DRSC19600], what was measured?
induced reporter light, run 1, well a: 74640; induced reporter light, run 1, well b: 70735; control promoter light, run 1, well a: 1.03e5; control promoter light, run 1, well b: 84895; uninduced reporter light, run 1, well a: 11330; outcome: inactive

What did the screen give for dpr8 [DRSC19938]?
induced reporter light, run 1, well a: 1.42e5; induced reporter light, run 1, well b: 1.08e5; control promoter light, run 1, well a: 1.23e5; control promoter light, run 1, well b: 97835; uninduced reporter light, run 1, well a: 16160; outcome: inactive

How did the screen score dpr8 [DRSC19939]?
induced reporter light, run 1, well a: 1.10e5; induced reporter light, run 1, well b: 94035; control promoter light, run 1, well a: 1.37e5; control promoter light, run 1, well b: 91405; uninduced reporter light, run 1, well a: 13980; outcome: inactive

What did the screen give for Drep1 [DRSC07527]?
induced reporter light, run 1, well a: 1.05e5; induced reporter light, run 1, well b: 97505; control promoter light, run 1, well a: 1.71e5; control promoter light, run 1, well b: 1.41e5; uninduced reporter light, run 1, well a: 8865; outcome: inactive

With RpL7-like + CG34164 [DRSC02836], how do the results read?
induced reporter light, run 1, well a: 1.21e5; induced reporter light, run 1, well b: 1.24e5; control promoter light, run 1, well a: 1.08e5; control promoter light, run 1, well b: 1.13e5; uninduced reporter light, run 1, well a: 11105; outcome: inactive

How did the screen score RpL7-like + CG34164 [DRSC02837]?
induced reporter light, run 1, well a: 1.44e5; induced reporter light, run 1, well b: 1.50e5; control promoter light, run 1, well a: 1.63e5; control promoter light, run 1, well b: 1.82e5; uninduced reporter light, run 1, well a: 11985; outcome: inactive

Reformatted: entries from further up.
{"gene knocked down":"Cip4","DRSC id":"DRSC08469","induced reporter light, run 1, well a":1.14e5,"induced reporter light, run 1, well b":1.43e5,"control promoter light, run 1, well a":84390,"control promoter light, run 1, well b":26165,"uninduced reporter light, run 1, well a":7510,"outcome":"inactive"}
{"gene knocked down":"Cip4","DRSC id":"DRSC21740","outcome":"inactive"}

Further results:
Which result is listed for SNF4Agamma [DRSC13461]?
induced reporter light, run 1, well a: 52615; induced reporter light, run 1, well b: 48610; control promoter light, run 1, well a: 75645; control promoter light, run 1, well b: 57640; uninduced reporter light, run 1, well a: 8760; outcome: inactive

With SNF4Agamma [DRSC13463], what does the deposit list?
induced reporter light, run 1, well a: 61710; induced reporter light, run 1, well b: 73805; control promoter light, run 1, well a: 77430; control promoter light, run 1, well b: 73045; uninduced reporter light, run 1, well a: 9185; outcome: inactive

For SNF4Agamma [DRSC15879], what was measured?
induced reporter light, run 1, well a: 2.22e5; induced reporter light, run 1, well b: 1.83e5; control promoter light, run 1, well a: 1.80e5; control promoter light, run 1, well b: 1.91e5; uninduced reporter light, run 1, well a: 13715; outcome: inactive

Which result is listed for SNF4Agamma [DRSC16847]?
induced reporter light, run 1, well a: 1.55e5; induced reporter light, run 1, well b: 2.04e5; control promoter light, run 1, well a: 1.94e5; control promoter light, run 1, well b: 1.88e5; uninduced reporter light, run 1, well a: 14745; outcome: inactive

What is on record for CG6154 [DRSC15977]?
induced reporter light, run 1, well a: 1.37e5; induced reporter light, run 1, well b: 1.36e5; control promoter light, run 1, well a: 2.33e5; control promoter light, run 1, well b: 1.96e5; uninduced reporter light, run 1, well a: 13125; outcome: inactive

With CG7741 [DRSC07035], what does the deposit list?
induced reporter light, run 1, well a: 1.22e5; induced reporter light, run 1, well b: 1.50e5; control promoter light, run 1, well a: 2.48e5; control promoter light, run 1, well b: 2.11e5; uninduced reporter light, run 1, well a: 11220; outcome: active

For PolD3 [DRSC01961], what does the deposit list?
induced reporter light, run 1, well a: 1.92e5; induced reporter light, run 1, well b: 1.64e5; control promoter light, run 1, well a: 1.78e5; control promoter light, run 1, well b: 1.87e5; uninduced reporter light, run 1, well a: 14500; outcome: inactive

For Gcn5 [DRSC11248], what does the deposit list?
induced reporter light, run 1, well a: 1.05e5; induced reporter light, run 1, well b: 98070; control promoter light, run 1, well a: 66360; control promoter light, run 1, well b: 41930; uninduced reporter light, run 1, well a: 7895; outcome: inactive
